Source: patent US20240299362A1, “EXOSOME PACKAGING AND TARGETED AUTOPHAGY” (University of Ottawa, priority 2017, published 2024)
Results are given in words; binding and its absence hold for the method and conditions named. In cells and extracts the contact can be indirect. Some results given as binding are weak or reduced against the parent protein; the word gives no strength.

By UniProt entry, the sequences of proteins in these tests, tags left out. Residues count along the entry.
UniProt P63082: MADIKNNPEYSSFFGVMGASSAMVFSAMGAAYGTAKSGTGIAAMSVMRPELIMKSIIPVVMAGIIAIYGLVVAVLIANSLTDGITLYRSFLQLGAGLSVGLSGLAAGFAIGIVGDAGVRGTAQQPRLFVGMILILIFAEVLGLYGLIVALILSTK
UniProt P50518, residues 2-226: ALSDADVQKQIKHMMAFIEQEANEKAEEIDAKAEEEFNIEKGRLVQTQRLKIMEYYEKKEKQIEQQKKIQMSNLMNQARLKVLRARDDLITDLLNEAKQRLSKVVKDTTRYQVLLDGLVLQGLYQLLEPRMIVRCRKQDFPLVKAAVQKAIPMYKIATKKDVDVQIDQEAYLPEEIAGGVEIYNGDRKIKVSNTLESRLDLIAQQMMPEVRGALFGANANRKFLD

Key:
[1] = molecular target: ATP6V0C (mouse (MEF)) (UniProt P63082); assay: proximity ligation assay for ATP6V1E1 and ATP6V0C in fixed cells
[2] = molecular target: ATP6V0C (mouse (MEF)) (UniProt P63082); assay: proximity ligation assay in fixed cells (FIG. 3C)

Substance: ATP6V1E1 (from UniProt P50518 2-226)
- binding [1]: binds
- binding [2]: binds
